Values from PubChem BioAssay AID504791 (Drosophila RNAi Screening Center, 2011).
Assay: 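Genes of the fly required for silencing by miRNA, siRNA or endo-siRNA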 (primary screen). Cells: Drosophila S2-derived reporter cells. Knock-down reagent: long dsRNA against Drosophila genes, about 150-250 ng dsRNA per well (siRNA assay); about 80-120 ng (miRNA assay). Timing: about 5 days (siRNA assay); about 4 days (miRNA assay). Treatment: copper sulfate induction of reporters: 25 µM (siRNA assay); 200 mM stated (miRNA assay), 1-2 days before reading. Measurement: 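Dual luciferase assay: Renilla to firefly signal ratio in each well, scaled to the mean ratio of its plate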. Active means: 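First-pass picks had plate-scaled ratios over 1.5 for the siRNA assay, over 1.6 for the miRNA assay, or under 0.6; two distinct dsRNAs had to score alike on retest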.
In all, the deposit lists about 23,000 reagents; below is an unselected part of those that have a named target and a result. Of all reagents, 199 (0.86%) are marked active. 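Plate-scaled ratios behind the calls are not deposited; printed light signals are raw; many rows marked increased or decreased are still called inactive.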 Reagents against one gene are numbered here. No sequences are given here. The record does not give: the direction of the score.

no.	Target gene	reagent	stable siRNA reporter change	miRNA reporter change	stable assay Renilla, run 1 (luminescence)	stable assay firefly, run 1 (luminescence)	outcome
1	trr	1		reporter ratio lowered past the hit cutoff	7391	4.14e5	inactive
2	trr	2	reporter ratio lowered past the hit cutoff		3147	3.96e5	inactive
3	rau	1			1.12e5	1.01e5	inactive
4	CG15547	1			6564	3.54e5	inactive
5	Su(fu)	1			8174	3.57e5	inactive
6	Ufc1	1			9893	3.53e5	inactive
7	Ncc69	1			7575	3.63e5	inactive
8	Ncc69	2			7335	4.96e5	inactive
9	CG11670	1			6558	3.71e5	inactive
10	dany	1			7647	3.16e5	inactive
11	CG8004	1			9230	3.24e5	inactive
12	CG33792	1			8282	5.19e5	inactive
13	Nrg	1			4596	4.11e5	inactive
14	Nrg	2			8695	6.28e5	inactive
15	Jhedup	1			7102	3.82e5	inactive
16	EloC	1		reporter ratio lowered past the hit cutoff	4935	4.15e5	active
17	tutl	1			6987	5.53e5	inactive
18	tutl	2			7383	5.96e5	inactive
19	tutl	3			6498	5.25e5	inactive
20	CG12477	1			7411	4.51e5	inactive
21	CG4744	1			8490	5.99e5	inactive
22	Adck1	1			28662	1.14e6	inactive
23	CG31922	1			9298	5.00e5	inactive
24	CG34038	1			5744	4.54e5	inactive
25	CG13047	1			7722	4.49e5	inactive
26	Send2	1			7528	4.18e5	inactive
27	VepD	1	reporter ratio raised past the hit cutoff		5120	1.18e5	inactive
28	beta-PheRS	1			7696	3.75e5	inactive
29	Dis3	1			9453	3.07e5	inactive
30	pps	1			9327	3.61e5	inactive

Records listed so far whose gene name starts with T or t:
Target gene	reagent	stable siRNA reporter change	miRNA reporter change	stable assay Renilla, run 1 (luminescence)	stable assay firefly, run 1 (luminescence)	outcome
trr	1		reporter ratio lowered past the hit cutoff	7391	4.14e5	inactive
trr	2	reporter ratio lowered past the hit cutoff		3147	3.96e5	inactive
tutl	1			6987	5.53e5	inactive
tutl	2			7383	5.96e5	inactive
tutl	3			6498	5.25e5	inactive

Additional reagents:
no.	Target gene	reagent	stable siRNA reporter change	miRNA reporter change	stable assay Renilla, run 1 (luminescence)	stable assay firefly, run 1 (luminescence)	outcome
31	CG11247	1			5411	4.52e5	inactive
32	CG11247	2			8971	5.82e5	inactive
33	PCB	1			8868	3.80e5	inactive
34	holn1	1			13834	9.75e5	inactive
35	holn1	2			4790	4.34e5	inactive
36	teq	1			6619	4.78e5	inactive
37	teq	2			6692	4.01e5	inactive
38	teq	3			7226	3.76e5	inactive
39	CG10589	1			7757	5.47e5	inactive
40	CG42284	1			8838	5.69e5	inactive
41	CG42284	2			9494	4.81e5	inactive
42	E(spl)m5-HLH	1			7506	3.19e5	inactive
43	TwdlG	1			7008	3.39e5	inactive
44	Deaf1	1			5943	3.58e5	inactive
45	Deaf1	2	reporter ratio raised past the hit cutoff	reporter ratio raised past the hit cutoff	4955	2.89e5	active
46	Skadu	1			5523	4.31e5	inactive
47	CG30338	1			5540	4.31e5	inactive
48	Gapvd1	1			4788	3.82e5	inactive
49	CG14866	1			7112	3.54e5	inactive
50	Or85f	1			6932	2.99e5	inactive
51	natalisin	1			6231	3.18e5	inactive
52	natalisin	2			8101	6.43e5	inactive
53	CG31268	1			4551	4.02e5	inactive
54	cpx	1			4719	3.77e5	inactive
55	na	1			5791	5.46e5	inactive
56	tx (retired record)	1		reporter ratio lowered past the hit cutoff	7815	4.73e5	active
57	nrv2	1			4871	3.37e5	inactive
58	nrv2	2			12122	2.75e5	inactive
